Assay results from the supplement of paper PMC10849652.
The other results are listed elsewhere or left out.

By UniProt entry, the sequences of proteins in these tests, tags left out. Where a name states a change or a piece, a line headed by the entry shows the natural chain unless it says otherwise.
UniProt Q9NUU7: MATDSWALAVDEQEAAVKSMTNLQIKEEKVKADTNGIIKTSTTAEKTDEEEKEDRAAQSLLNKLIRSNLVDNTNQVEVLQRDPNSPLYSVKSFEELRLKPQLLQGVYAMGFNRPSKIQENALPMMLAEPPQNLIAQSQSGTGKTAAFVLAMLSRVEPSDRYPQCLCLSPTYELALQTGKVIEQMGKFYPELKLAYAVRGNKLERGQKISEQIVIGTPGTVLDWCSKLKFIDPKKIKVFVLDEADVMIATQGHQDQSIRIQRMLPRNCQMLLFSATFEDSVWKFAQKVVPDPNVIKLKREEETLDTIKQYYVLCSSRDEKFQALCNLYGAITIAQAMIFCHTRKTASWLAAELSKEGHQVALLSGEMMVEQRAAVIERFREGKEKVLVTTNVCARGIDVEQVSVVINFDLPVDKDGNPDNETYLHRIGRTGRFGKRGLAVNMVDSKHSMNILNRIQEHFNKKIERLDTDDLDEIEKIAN
UniProt Q9NUI1: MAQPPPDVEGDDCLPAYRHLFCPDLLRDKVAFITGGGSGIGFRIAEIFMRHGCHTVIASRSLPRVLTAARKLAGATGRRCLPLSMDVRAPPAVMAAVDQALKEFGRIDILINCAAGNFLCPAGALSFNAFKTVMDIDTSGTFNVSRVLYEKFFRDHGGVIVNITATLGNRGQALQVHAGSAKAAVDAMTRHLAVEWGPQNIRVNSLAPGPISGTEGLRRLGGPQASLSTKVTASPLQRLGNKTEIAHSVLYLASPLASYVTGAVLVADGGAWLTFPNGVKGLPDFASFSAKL
UniProt Q9H773: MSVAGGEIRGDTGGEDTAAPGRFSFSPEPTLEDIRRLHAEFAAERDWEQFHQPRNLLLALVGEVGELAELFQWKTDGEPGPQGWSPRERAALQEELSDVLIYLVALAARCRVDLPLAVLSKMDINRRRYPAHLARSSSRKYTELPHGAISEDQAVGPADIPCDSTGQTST
UniProt O75064: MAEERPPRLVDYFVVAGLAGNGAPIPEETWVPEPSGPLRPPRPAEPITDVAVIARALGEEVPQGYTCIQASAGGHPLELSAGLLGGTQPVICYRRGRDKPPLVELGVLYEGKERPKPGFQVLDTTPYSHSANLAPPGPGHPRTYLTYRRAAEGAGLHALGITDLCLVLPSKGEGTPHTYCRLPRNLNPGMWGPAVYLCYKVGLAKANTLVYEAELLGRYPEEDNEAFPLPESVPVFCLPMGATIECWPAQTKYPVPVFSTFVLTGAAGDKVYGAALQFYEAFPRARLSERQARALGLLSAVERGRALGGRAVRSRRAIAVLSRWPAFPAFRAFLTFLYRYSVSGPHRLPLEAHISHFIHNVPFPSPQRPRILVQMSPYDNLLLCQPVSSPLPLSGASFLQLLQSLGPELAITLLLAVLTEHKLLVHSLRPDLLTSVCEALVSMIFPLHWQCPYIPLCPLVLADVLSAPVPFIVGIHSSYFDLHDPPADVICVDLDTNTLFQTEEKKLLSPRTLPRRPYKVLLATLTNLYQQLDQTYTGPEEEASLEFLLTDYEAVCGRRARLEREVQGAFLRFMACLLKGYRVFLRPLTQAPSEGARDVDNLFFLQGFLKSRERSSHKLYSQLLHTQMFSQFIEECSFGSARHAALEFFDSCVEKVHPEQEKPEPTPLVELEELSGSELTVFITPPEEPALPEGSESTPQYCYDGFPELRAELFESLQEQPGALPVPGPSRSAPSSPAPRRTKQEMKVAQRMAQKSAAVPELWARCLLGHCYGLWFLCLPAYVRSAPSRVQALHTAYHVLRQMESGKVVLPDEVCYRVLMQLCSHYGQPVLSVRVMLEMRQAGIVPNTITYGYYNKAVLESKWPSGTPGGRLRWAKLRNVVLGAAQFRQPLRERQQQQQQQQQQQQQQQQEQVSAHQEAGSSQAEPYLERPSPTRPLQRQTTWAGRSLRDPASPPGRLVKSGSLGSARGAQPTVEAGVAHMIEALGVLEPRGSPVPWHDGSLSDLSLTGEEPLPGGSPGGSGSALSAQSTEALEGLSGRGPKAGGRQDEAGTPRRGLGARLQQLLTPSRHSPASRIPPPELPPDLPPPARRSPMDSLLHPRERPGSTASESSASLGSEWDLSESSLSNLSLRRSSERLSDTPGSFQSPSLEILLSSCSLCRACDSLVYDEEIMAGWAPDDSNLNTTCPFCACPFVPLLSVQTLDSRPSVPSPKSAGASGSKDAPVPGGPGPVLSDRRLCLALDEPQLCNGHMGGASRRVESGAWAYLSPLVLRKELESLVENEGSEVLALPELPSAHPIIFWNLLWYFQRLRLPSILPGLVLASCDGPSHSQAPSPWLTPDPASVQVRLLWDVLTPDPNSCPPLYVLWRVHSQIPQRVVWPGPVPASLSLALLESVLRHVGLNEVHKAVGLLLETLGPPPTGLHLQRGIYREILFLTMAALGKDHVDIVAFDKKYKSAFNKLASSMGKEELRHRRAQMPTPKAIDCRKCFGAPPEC
UniProt Q8NCG7: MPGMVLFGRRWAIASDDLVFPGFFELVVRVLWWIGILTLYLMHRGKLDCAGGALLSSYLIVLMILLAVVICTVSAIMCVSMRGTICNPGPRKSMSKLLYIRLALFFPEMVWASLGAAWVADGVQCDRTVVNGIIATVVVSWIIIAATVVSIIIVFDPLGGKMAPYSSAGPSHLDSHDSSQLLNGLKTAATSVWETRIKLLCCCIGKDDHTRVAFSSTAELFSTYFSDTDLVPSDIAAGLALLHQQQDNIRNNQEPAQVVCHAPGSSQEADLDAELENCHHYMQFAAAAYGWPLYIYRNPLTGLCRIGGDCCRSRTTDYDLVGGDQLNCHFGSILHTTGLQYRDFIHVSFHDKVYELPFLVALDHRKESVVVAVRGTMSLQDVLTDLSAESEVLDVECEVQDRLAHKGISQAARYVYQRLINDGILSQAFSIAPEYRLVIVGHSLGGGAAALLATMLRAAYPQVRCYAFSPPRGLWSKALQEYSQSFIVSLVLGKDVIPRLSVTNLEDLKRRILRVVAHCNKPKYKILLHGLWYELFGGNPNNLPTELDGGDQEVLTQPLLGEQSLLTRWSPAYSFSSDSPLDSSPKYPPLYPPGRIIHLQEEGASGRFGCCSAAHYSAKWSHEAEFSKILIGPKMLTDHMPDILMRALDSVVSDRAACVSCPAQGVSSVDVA
UniProt Q5VZ89: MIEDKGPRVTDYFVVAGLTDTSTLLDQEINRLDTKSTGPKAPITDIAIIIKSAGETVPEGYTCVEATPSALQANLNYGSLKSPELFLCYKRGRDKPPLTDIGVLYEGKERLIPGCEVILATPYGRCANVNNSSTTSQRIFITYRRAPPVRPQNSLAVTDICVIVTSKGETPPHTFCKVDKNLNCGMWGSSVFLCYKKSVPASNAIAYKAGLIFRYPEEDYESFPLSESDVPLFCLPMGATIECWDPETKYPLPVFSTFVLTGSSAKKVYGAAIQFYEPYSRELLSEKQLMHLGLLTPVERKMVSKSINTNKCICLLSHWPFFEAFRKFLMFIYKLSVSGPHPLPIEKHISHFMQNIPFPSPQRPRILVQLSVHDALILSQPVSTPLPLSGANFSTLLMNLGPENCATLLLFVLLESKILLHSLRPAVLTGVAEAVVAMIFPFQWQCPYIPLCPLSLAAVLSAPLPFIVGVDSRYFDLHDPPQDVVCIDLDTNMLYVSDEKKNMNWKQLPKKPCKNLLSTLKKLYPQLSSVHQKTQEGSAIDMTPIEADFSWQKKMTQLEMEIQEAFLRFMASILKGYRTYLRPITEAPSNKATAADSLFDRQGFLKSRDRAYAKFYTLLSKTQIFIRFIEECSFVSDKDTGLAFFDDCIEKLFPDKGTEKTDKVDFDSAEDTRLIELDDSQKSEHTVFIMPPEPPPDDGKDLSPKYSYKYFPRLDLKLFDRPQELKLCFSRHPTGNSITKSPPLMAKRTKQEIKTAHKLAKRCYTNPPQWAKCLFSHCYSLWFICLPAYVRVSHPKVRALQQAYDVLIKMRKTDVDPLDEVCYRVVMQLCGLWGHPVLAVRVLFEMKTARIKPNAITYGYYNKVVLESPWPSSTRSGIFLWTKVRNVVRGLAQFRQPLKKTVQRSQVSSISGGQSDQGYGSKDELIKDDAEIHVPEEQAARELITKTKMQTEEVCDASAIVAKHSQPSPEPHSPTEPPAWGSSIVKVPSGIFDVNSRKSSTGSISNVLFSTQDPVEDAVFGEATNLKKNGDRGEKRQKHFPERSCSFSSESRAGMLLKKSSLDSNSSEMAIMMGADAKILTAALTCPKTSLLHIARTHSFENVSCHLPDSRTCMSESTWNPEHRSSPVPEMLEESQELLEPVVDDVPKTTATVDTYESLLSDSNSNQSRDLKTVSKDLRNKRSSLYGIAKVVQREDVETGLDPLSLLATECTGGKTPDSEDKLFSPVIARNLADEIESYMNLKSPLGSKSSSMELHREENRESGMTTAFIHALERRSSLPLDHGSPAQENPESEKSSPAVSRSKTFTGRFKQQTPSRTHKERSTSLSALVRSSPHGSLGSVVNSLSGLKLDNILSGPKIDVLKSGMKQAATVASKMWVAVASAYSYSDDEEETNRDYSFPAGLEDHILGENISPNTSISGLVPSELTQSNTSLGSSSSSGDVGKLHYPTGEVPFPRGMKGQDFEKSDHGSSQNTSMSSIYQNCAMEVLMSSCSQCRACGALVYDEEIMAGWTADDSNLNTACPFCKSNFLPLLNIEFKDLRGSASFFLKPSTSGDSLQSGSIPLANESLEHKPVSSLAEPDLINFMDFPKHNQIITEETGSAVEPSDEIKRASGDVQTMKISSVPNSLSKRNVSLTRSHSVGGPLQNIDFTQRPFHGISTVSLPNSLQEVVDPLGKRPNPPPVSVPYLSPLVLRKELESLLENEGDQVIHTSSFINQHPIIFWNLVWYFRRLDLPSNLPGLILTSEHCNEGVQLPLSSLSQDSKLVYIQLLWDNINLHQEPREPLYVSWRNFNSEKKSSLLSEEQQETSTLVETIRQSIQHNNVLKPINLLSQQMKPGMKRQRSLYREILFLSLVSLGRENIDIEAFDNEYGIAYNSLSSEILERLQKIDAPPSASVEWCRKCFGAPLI
UniProt Q9BTE7: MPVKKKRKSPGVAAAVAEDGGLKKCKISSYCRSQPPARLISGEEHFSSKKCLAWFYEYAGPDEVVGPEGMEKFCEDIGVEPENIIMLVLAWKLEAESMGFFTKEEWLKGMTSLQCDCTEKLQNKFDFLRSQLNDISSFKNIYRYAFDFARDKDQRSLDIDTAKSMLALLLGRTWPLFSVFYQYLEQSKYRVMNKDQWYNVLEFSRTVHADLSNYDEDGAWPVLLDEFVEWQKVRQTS
UniProt O95865: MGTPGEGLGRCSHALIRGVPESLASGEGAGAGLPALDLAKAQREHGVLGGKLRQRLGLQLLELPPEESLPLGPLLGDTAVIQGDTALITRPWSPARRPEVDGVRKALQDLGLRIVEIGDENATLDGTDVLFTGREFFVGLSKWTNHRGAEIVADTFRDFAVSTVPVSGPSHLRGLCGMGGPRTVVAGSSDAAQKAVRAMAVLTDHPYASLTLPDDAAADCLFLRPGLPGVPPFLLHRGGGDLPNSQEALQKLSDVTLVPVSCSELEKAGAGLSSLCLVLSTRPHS
UniProt Q6ICB0: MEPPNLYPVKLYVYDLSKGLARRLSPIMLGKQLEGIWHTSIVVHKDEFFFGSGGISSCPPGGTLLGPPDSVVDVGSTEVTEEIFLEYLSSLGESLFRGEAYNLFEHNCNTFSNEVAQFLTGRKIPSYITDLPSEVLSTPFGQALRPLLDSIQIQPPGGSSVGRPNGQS
UniProt Q9NWV4: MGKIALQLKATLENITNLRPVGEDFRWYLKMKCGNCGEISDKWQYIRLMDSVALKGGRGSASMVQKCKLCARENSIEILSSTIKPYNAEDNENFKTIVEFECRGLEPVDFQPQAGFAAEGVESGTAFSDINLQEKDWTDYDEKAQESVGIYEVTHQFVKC
UniProt Q9BTE1, whole entry, looked up: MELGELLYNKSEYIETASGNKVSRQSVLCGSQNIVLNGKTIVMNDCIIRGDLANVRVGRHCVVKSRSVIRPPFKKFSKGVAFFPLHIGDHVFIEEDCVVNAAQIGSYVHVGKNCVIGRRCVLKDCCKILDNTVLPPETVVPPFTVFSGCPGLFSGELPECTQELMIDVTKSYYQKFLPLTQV
UniProt P14868: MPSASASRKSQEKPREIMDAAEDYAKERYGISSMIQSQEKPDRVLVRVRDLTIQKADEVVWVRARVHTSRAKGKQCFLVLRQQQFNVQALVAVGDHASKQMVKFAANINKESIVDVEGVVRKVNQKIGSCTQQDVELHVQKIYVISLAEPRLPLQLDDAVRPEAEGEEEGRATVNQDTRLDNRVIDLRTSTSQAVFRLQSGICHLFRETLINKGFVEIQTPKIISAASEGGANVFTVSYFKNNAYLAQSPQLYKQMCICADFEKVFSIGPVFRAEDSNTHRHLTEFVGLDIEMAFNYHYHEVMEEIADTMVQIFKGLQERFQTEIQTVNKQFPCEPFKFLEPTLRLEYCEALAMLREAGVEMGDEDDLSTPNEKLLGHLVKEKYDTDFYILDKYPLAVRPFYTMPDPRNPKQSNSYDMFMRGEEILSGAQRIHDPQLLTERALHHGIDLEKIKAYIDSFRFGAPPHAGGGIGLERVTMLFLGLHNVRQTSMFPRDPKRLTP

Legend:
Assay in all cases: log2 fold change, soluble protein after heating vs DMSO (PISA); higher = thermal stabilisation; K562 lysate, 10 uM; active = over 0.2 and 3.5 SD of the protein, either way, in both replicates (recomputed)
vemurafenib = compound: CCCS(=O)(=O)Nc1ccc(F)c(C(=O)c2c[nH]c3ncc(-c4ccc(Cl)cc4)cc23)c1F [vemurafenib]
Method in brief: (§1)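 K562 pellets were dounce-homogenised in PBS pH 7.4 with 1 mM MgCl2, and the crude extract at 1 mg/mL protein was treated with 10 μM compound for 30 min. Aliquots were heated for 3 min across 48°C-58°C, pooled, and brought to 0.5% NP-40 at 4°C; soluble protein was the supernatant after 21,000xg for 90 min. Soluble protein was quantified by TMTpro 16plex LC-MS/MS with channel sums equalised, and reported as log2 fold change in thermal stability against DMSO controls, with values from duplicates.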

[1] = compound: CCCS(=O)(=O)Nc1ccc(F)c(C(=O)c2c[nH]c3ncc(Cl)cc23)c1F
Method in brief: as §1

barasertib = compound: CCN(CCCOc1ccc2c(Nc3cc(CC(=O)Nc4cccc(F)c4)[nH]n3)ncnc2c1)CCOP(=O)(O)O [barasertib]
Method in brief: as §1

[2] = compound: CC[C@@H]1C(=O)N(C)c2cnc(Nc3ccc(C(=O)NC4CCN(C)CC4)cc3OC)nc2N1C1CCCC1
Method in brief: as §1

volasertib = compound: CC[C@@H]1C(=O)N(C)c2cnc(Nc3ccc(C(=O)N[C@H]4CC[C@H](N5CCN(CC6CC6)CC5)CC4)cc3OC)nc2N1C(C)C [volasertib]
Method in brief: as §1

[3] = compound: CCn1c(C(=O)N(C2CC2)C2CC2)cc2c3c(ncn3C)c(Nc3cc(C)n(C)n3)nc21
Method in brief: as §1

[4] = compound: CCn1cc(-c2ccnc3[nH]c(-c4cccc(CN(C)C)c4)cc23)c(-c2ccc(NC(=O)N(C)C)cc2)n1
Method in brief: as §1

[5] = compound: CN1CCC(CNc2ccc3ncc(-c4cccc(OC(F)(F)F)c4)n3n2)CC1
Method in brief: as §1

saracatinib = compound: CN1CCN(CCOc2cc(OC3CCOCC3)c3c(Nc4c(Cl)ccc5c4OCO5)ncnc3c2)CC1 [saracatinib]
Method in brief: as §1

sotrastaurin = compound: CN1CCN(c2nc(C3=C(c4c[nH]c5ccccc45)C(=O)NC3=O)c3ccccc3n2)CC1 [sotrastaurin]
Method in brief: as §1

Measured: log2 fold change

DENND10 (UniProt Q8TCE6)
inactive: vemurafenib 0.019 | [1] 0.082 | barasertib 0.007 | [2] -0.054 | volasertib 0 | [3] 0.006 | [4] 0.012 | [5] -0.006 | saracatinib 0.036 | sotrastaurin 0.054

DDOST (UniProt P39656)
inactive: vemurafenib 0.032 | [1] -0.006 | barasertib -0.011 | [2] 0.017 | volasertib 0.016 | [3] -0.051 | [4] -0.121 | [5] 0.072 | saracatinib 0.005 | sotrastaurin 0.01

DDX19A (UniProt Q9NUU7)
inactive: vemurafenib -0.029 | [1] -0.005 | barasertib 0.006 | [2] 0.019 | volasertib 0.008 | [3] 0.055 | [4] 0.012 | [5] -0.029 | saracatinib -0.008 | sotrastaurin 0.042

DECR2 (UniProt Q9NUI1)
inactive: vemurafenib -0.013 | [1] 0.125 | barasertib 0.036 | [2] -0.009 | volasertib -0.037 | [3] 0.044 | [4] -0.005 | [5] 0.016 | saracatinib 0.027 | sotrastaurin -0.015

DCTPP1 (UniProt Q9H773)
inactive: vemurafenib 0.073 | [1] -0.064 | barasertib 0.203 | [2] -0.012 | volasertib 0.015 | [3] -0.006 | [4] -0.024 | [5] -0.084 | saracatinib -0.008 | sotrastaurin 0.034

DENND4B (UniProt O75064)
inactive: vemurafenib 0.034 | [1] 0.015 | barasertib 0.008 | [2] 0.07 | volasertib 0.031 | [3] -0.005 | [4] -0.095 | [5] 0.044 | saracatinib -0.03 | sotrastaurin 0.008

DDX23 (UniProt Q9BUQ8)
inactive: vemurafenib 0.009 | [1] 0.01 | barasertib 0.032 | [2] -0.012 | volasertib -0.01 | [3] 0.029 | [4] 0.008 | [5] -0.051 | saracatinib 0.002 | sotrastaurin 0.004

DAXX (UniProt Q9UER7)
inactive: vemurafenib 0.033 | [1] 0.024 | barasertib -0.017 | [2] 0.057 | volasertib 0.046 | [3] -0.019 | [4] 0.012 | [5] -0.059 | saracatinib 0.013 | sotrastaurin -0.007

DDX10 (UniProt Q13206)
inactive: vemurafenib 0.028 | [1] 0.015 | barasertib 0.205 | [2] 0.056 | volasertib -0.024 | [3] -0.019 | [4] 0.009 | [5] 0 | saracatinib -0.053 | sotrastaurin -0.099

DDX5 (UniProt P17844)
inactive: vemurafenib -0.017 | [1] 0.009 | barasertib -0.034 | [2] -0.029 | volasertib -0.022 | [3] 0.031 | [4] 0.011 | [5] -0.072 | saracatinib 0.008 | sotrastaurin -0.006

DAGLB (UniProt Q8NCG7)
inactive: vemurafenib 0.042 | [1] -0.02 | barasertib -0.016 | [2] -0.012 | volasertib -0.011 | [3] -0.039 | [4] 0.03 | [5] 0.092 | saracatinib -0.04 | sotrastaurin -0.037

DDX39A (UniProt O00148)
inactive: vemurafenib 0.021 | [1] 0.021 | barasertib 0.047 | [2] -0.049 | volasertib -0.071 | [3] -0.028 | [4] -0.041 | [5] -0.027 | saracatinib -0.032 | sotrastaurin -0.002

DERL1 (UniProt Q9BUN8)
inactive: vemurafenib 0.067 | [1] 0.012 | barasertib -0.075 | [2] 0.098 | volasertib 0.013 | [3] -0.02 | [4] -0.213 | [5] 0.082 | saracatinib -0.074 | sotrastaurin 0.054

DCAF4L2 (UniProt Q8NA75)
inactive: vemurafenib 0.22 | [1] 0.018 | barasertib 0.059 | [2] -0.017 | volasertib -0.026 | [3] 0.073 | [4] 0.13 | [5] -0.121 | saracatinib -0.048 | sotrastaurin 0.079

D2HGDH (UniProt Q8N465)
inactive: vemurafenib 0.05 | [1] 0.012 | barasertib -0.052 | [2] 0.07 | volasertib -0.01 | [3] -0.079 | [4] -0.068 | [5] 0.081 | saracatinib 0.006 | sotrastaurin 0.007

DENND4C (UniProt Q5VZ89)
inactive: vemurafenib -0.038 | [1] 0.027 | barasertib 0.034 | [2] 0.044 | volasertib -0.004 | [3] 0.008 | [4] -0.068 | [5] -0.045 | saracatinib 0.056 | sotrastaurin 0.025

DENND6A (UniProt Q8IWF6)
inactive: vemurafenib 0.025 | [1] 0.033 | barasertib 0.066 | [2] 0.029 | volasertib -0.062 | [3] 0.019 | [4] 0.017 | [5] 0.004 | saracatinib -0.012 | sotrastaurin -0.027

DCUN1D5 (UniProt Q9BTE7)
inactive: vemurafenib 0.032 | [1] 0.012 | barasertib 0.073 | [2] -0.054 | volasertib -0.043 | [3] -0.041 | [4] -0.015 | [5] -0.047 | saracatinib -0.02 | sotrastaurin 0.013

DDAH2 (UniProt O95865)
inactive: vemurafenib -0.019 | [1] 0.01 | barasertib 0.199 | [2] -0.021 | volasertib 0.026 | [3] 0.001 | [4] 0.093 | [5] -0.07 | saracatinib -0.022 | sotrastaurin -0.001

DCTN4 (UniProt Q9UJW0)
inactive: vemurafenib -0.012 | [1] 0.015 | barasertib -0.03 | [2] 0.067 | volasertib 0.007 | [3] -0.043 | [4] -0.03 | [5] 0.035 | saracatinib -0.01 | sotrastaurin -0.04

DESI1 (UniProt Q6ICB0)
inactive: vemurafenib -0.013 | barasertib 0.046 | [2] 0.001 | [4] 0.129 | [5] -0.075 | saracatinib 0 | sotrastaurin -0.026

DEGS1 (UniProt O15121)
inactive: vemurafenib 0.117 | [1] 0.056 | barasertib 0.005 | [2] 0.034 | volasertib 0.007 | [3] -0.055 | [4] 0.044 | [5] 0.017 | saracatinib 0.041 | sotrastaurin 0.001

CZIB (UniProt Q9NWV4)
inactive: vemurafenib -0.031 | [1] -0.018 | barasertib -0.058 | [2] 0.001 | volasertib 0.027 | [3] 0.016 | [4] 0.125 | [5] 0.017 | saracatinib -0.006 | sotrastaurin 0.02

DCTN5 (UniProt Q9BTE1)
inactive: vemurafenib -0.051 | [1] -0.015 | barasertib -0.03 | [2] 0.022 | volasertib -0.021 | [3] 0.055 | [4] 0.046 | [5] -0.009 | saracatinib -0.033 | sotrastaurin -0.034

DDX46, A0A0C4DG89
inactive: vemurafenib 0.11 | [1] 0.035 | barasertib -0.014 | [2] 0.053 | volasertib -0.085 | [4] 0.014 | [5] 0.099 | saracatinib -0.001

Seven successive records already listed:
DENND4B (UniProt O75064)
inactive: vemurafenib 0.034 | [1] 0.015 | barasertib 0.008 | [2] 0.07 | volasertib 0.031 | [3] -0.005 | [4] -0.095 | [5] 0.044 | saracatinib -0.03 | sotrastaurin 0.008

DDX23 (UniProt Q9BUQ8)
inactive: vemurafenib 0.009 | [1] 0.01 | barasertib 0.032 | [2] -0.012 | volasertib -0.01 | [3] 0.029 | [4] 0.008 | [5] -0.051 | saracatinib 0.002 | sotrastaurin 0.004

DAXX (UniProt Q9UER7)
inactive: vemurafenib 0.033 | [1] 0.024 | barasertib -0.017 | [2] 0.057 | volasertib 0.046 | [3] -0.019 | [4] 0.012 | [5] -0.059 | saracatinib 0.013 | sotrastaurin -0.007

DDX10 (UniProt Q13206)
inactive: vemurafenib 0.028 | [1] 0.015 | barasertib 0.205 | [2] 0.056 | volasertib -0.024 | [3] -0.019 | [4] 0.009 | [5] 0 | saracatinib -0.053 | sotrastaurin -0.099

DDX5 (UniProt P17844)
inactive: vemurafenib -0.017 | [1] 0.009 | barasertib -0.034 | [2] -0.029 | volasertib -0.022 | [3] 0.031 | [4] 0.011 | [5] -0.072 | saracatinib 0.008 | sotrastaurin -0.006

DAGLB (UniProt Q8NCG7)
inactive: vemurafenib 0.042 | [1] -0.02 | barasertib -0.016 | [2] -0.012 | volasertib -0.011 | [3] -0.039 | [4] 0.03 | [5] 0.092 | saracatinib -0.04 | sotrastaurin -0.037

DDX39A (UniProt O00148)
inactive: vemurafenib 0.021 | [1] 0.021 | barasertib 0.047 | [2] -0.049 | volasertib -0.071 | [3] -0.028 | [4] -0.041 | [5] -0.027 | saracatinib -0.032 | sotrastaurin -0.002

Continuation.

DFFA isoform 2 (UniProt O00273)
inactive: vemurafenib 0.049 | [1] 0.119 | barasertib -0.113 | volasertib 0.021 | [3] -0.017 | [4] 0.145 | [5] -0.051 | saracatinib -0.056 | sotrastaurin 0.09

DARS (UniProt P14868)
inactive: vemurafenib 0.02 | [1] 0.021 | barasertib 0.021 | [2] -0.099 | volasertib -0.043 | [3] 0.062 | [4] 0.026 | [5] -0.012 | saracatinib 0.018 | sotrastaurin 0.011

DDA1 (UniProt Q9BW61)
inactive: vemurafenib -0.02 | [1] 0.038 | barasertib -0.004 | [2] 0.003 | volasertib 0 | [3] 0.046 | [4] 0 | [5] -0.023 | saracatinib 0.019 | sotrastaurin -0.025
